In data set [1] the test system is breast cancer cell line MCF-7. Put plainly: Cell viability assay (MTS), MCF-7. The following applies: selectivity index MCF-10A vs MCF-7; SI=(IC50 normal−IC50 cancer)/IC50 cancer. It is filed as cell-based, human. Here is the method:
In an embodiment, the cell growth inhibition and IC50 values of the synthesised and isolated chromene-based compounds were determined as part of the evaluation of the antiproliferative activity of the isolated agents. A complete study on the structure-activity relationship was performed for all the synthesised compounds. The antiproliferative activity against MCF-7 breast cancer cell lines were analysed. […] The non-neoplastic cell line MCF-10A was also used to determine the selectivity of the compounds for the tumour cells. For compounds with an IC50 value (concentration required to reduce cell viability by 50%) higher than 20 μM, the IC50 value was not determined. Selectivity index (SI) was calculated in order to evaluate the cytotoxicity of the tested compounds.
(§1) In an embodiment, three human breast cancer cell lines Hs578T, MDA-MB-468 and MCF-7, and a normal breast cell line MCF-10A, were obtained from ATCC (American Type Culture Collection). The cancer cell lines were cultured in Dulbecco's modified Eagle medium, 4.5 g/l glucose (DMEM, Gibco) supplemented with 10% heating inactivated Fetal Bovine Serum (FBS, Gibco) and 1% antibiotic solution (Penicillin-Streptomycin, Gibco). The normal cell line was cultured in Dulbecco's Modified Eagle Medium: Nutrient Mixture F-12 (DMEM/F12, Gibco) supplemented with 5% heating inactivated FBS (Gibco), 1% antibiotic solution (Penicillin-Streptomycin, Gibco), 1% steroid hormone (Hydrocortisone, Sigma-Aldrich), 0.1% peptide hormone (Insulin, Sigma-Aldrich) and 0.01% protein complex (Cholera Toxin, Gibco). Two distinct human acute myeloid leukemia (AML) cell lines, HL-60 (FAB M2) and KG-1 (erythroleukemia-FAB M6), and one human lymphoblastic leukemia (ALL) cell line, Jurkat (T cell type), were also used. These three cell lines were obtained from German Collection of Microorganisms and Cell cultures (DMSZ®, Deutsche Sammlung von Mikroorganismen and Zellkulturen in German). Cells were cultured in RPMI 1640 medium (Biochrom®-Merck Millipore) supplemented with 10% heating inactivated FBS (Biochrom®-Merck Millipore) and 1% antibiotic/antimitotic mixture (Invitrogen®). Three human glioblastoma (GBM) cell line models, two established and commercially available cell lines (U87MG and GAMG, kind gift from Rui M. Reis) and one primary GBM culture (GLIB) were also used. GBM cells were cultures in DMEM (Biochrom-Merck Millipore), all supplemented with 10% FBS. The Renal cell carcinoma cell lines A498, 786-O, Caki-2 and HK2 were obtained from ATCC. The cancer cell line A498 was cultured in MEM medium (Biochrom®-Merck Millipore), 786-O was cultured in RPMI 1640 medium (Biochrom®-Merck Millipore), Caki-2 was cultured in Mc Coys medium (Biochrom®-Merck Millipore) and HK2 was cultured in RPMI 1640 medium (Biochrom®-Merck Millipore). All the media were supplemented with 10% heat inactivated FBS (Biochrom®-Merck Millipore) and 1% antibiotic/antimitotic mixture (Invitrogen®). All cells were grown in a humidified incubator at 37° C. and 5% CO2. For all assays, DMSO (Dimethyl Sulfoxide, Sigma-Aldrich) controls were used.
In an embodiment, cell viability assays were performed. MCF-7, Hs578T and MCF-10A cells were plated in triplicate in 96-multiwell culture plates, at 3000 cells […], or 5000 cells […] for MDA-MB-468 (100 μL/well). The cells were then allowed to adhere in complete medium, over a period of 18-20 hours. Cells were subsequently treated with 7 different concentrations (from 0.1 to 40 μM or 5 to 60 μM) of compounds or control in fresh medium. HL-60, KG-1 and Jurkat cell lines were plated in 96-multiwell culture plates at 50.000 cells/100 μL per well and treated with different concentrations (from 0.001 to 2 μM) of the compounds described (or control). Cells were plated, in triplicate, at an initial density of 2000 cells/well for GAMG, 4000 cells/well for GL18 and 6000 cells/well for U87MG, in 96-well plates, and allowed to adhere for 18-20 hours. […]

Data set [2] concerns TNBC cell line MDA-MB-231. Put plainly: Cell viability assay, MDA-MB-231. The following applies: selectivity index. It is filed as cell-based.
For data set [3], the system named is renal carcinoma cell line A498. Put plainly: Cell viability (sulforhodamine B), A498. It counts as cell-based. The following applies: selectivity index. Here is the method: (§2) In an embodiment, the antiproliferative activity of the compounds was further determined against renal carcinoma cell lines and non-neoplastic kidney cell line.
as §1
(§3) In an embodiment, cell viability assays were performed. MCF-7, Hs578T and MCF-10A cells were plated in triplicate in 96-multiwell culture plates, at 3000 cells per mL, or 5000 cells per mL for MDA-MB-468 (100 μL/well). The cells were then allowed to adhere in complete medium, over a period of 18-20 hours. Cells were subsequently treated with 7 different concentrations (from 0.1 to 40 μM or 5 to 60 μM) of compounds or control in fresh medium. HL-60, KG-1 and Jurkat cell lines were plated in 96-multiwell culture plates at 50.000 cells/100 μL per well and treated with different concentrations (from 0.001 to 2 μM) of the compounds described (or control). Cells were plated, in triplicate, at an initial density of 2000 cells/well for GAMG, 4000 cells/well for GL18 and 6000 cells/well for U87MG, in 96-well plates, and allowed to adhere for 18-20 hours. Cells were then treated with different concentrations of the compounds (0.005 to 100 μM) or with control. A498 and 786-O cells were plated at 2000 cells per mL, Caki-2 cells were plated at 3000 cells per mL and HK2 cells were plated at 2000 cells per mL in triplicate, in 96-multiwell culture plates (100 μL/well), and allowed to adhere over a period of 18-20 hours in complete medium. The cells were then treated with 7 different concentrations (from 0.1 to 40 μM or 5 to 60 μM) of compounds or control in fresh medium. […]

Data set [4] relates to renal carcinoma cell line 786-O. Put plainly: Cell viability (sulforhodamine B), 786-O. It is filed as cell-based. The following applies: selectivity index. Here is the method:
as §2, §1, §3

Data set [5] relates to renal carcinoma cell line Caki-2. In words: Cell viability (sulforhodamine B), Caki-2. It is filed as cell-based. The following applies: selectivity index. Here is the method:
as §2, §1, §3

A further data set deals with TNBC cell line Hs578t. Put plainly: Cell viability assay (MTS), Hs578t. It counts as cell-based, human. The following applies: selectivity index.
Text: In an embodiment, for a comparison study, monomers and respective dimers were selected and further evaluated in Hs578t and MDA-MB-468 breast cell lines. […] These cell lines correspond to the basal-like subtype of breast cancer, included in the known triple negative subtype, since they are negative for Estrogen receptor (ER), progesterone receptor (PR) and Human epidermal growth factor receptor 2 (HER2) molecular markers. The clinical behaviour of these breast cancer subtype is very aggressive and there is still no specific molecular therapy available.
as §1
In an embodiment, cell viability assays were performed. MCF-7, Hs578T and MCF-10A cells were plated in triplicate in 96-multiwell culture plates, at 3000 cells […], or 5000 cells […] for MDA-MB-468 (100 μL/well). The cells were then allowed to adhere in complete medium, over a period of 18-20 hours. Cells were subsequently treated with 7 different concentrations (from 0.1 to 40 μM or 5 to 60 μM) of compounds or control in fresh medium. HL-60, KG-1 and Jurkat cell lines were plated in 96-multiwell culture plates at 50.000 cells/100 μL per well and treated with different concentrations (from 0.001 to 2 μM) of the compounds described (or control). Cells were plated, in triplicate, at an initial density of 2000 cells/well for GAMG, 4000 cells/well for GL18 and 6000 cells/well for U87MG, in 96-well plates, and allowed to adhere for 18-20 hours. Cells were then treated with different concentrations of the compounds (0.005 to 100 μM) or with control. […]

The structures appear in SMILES notation.

In data set [1], `COc1cccc(-c2nc3c([nH]2)Cc2cccc(OC)c2O3)c1O` [Compound M955] came in with an SI above 6. Also, in data set [2], the “SI MDA-MB-231 vs MCF-10A” value is above 0.5.
Compound `Oc1ccccc1-c1nc2c([nH]1)Cc1ccccc1O2` [Compound M1159] came in with an SI in data set [1] above 7. For the same compound, in data set [3], the “SI HK2 vs A498” value is on record as “ns”. Further, the “SI MDA-MB-231 vs MCF-10A” value in data set [2] is recorded as above 0.6. The “SI HK2 vs 786-O” value in data set [4] is reported as 0.847.
In the case of `COc1ccc2c(c1)Cc1[nH]c(-c3cc(OC)ccc3O)nc1O2` [Compound M1220], in data set [1], the SI was above 4.
In data set [1], `COc1cccc2c1Oc1nc(-c3cccc(F)c3)[nH]c1C2` [MC349, 2-(3-fluorophenyl)-5-methoxy-3,9-dihydrochromeno[2,3-d]imidazoles] had an SI of 2.0. For the same compound, the “SI HK2 vs Caki-2” value in data set [5] turned out to be 4.97. Also, the “SI HK2 vs A498” value in data set [3] is listed as 1.35. In addition, in the data set on TNBC cell line Hs578t, the “SI Hs578t vs MCF-10A” value stood at 2.6. In addition, in data set [2], the “SI MDA-MB-231 vs MCF-10A” value was determined as 0.9. The “SI HK2 vs 786-O” value in data set [4] stood at 4.89.
The compound `COc1cccc2c1Oc1nc(-c3ccccc3)[nH]c1C2` [MC350, 5-methoxy-2-phenyl-3,9-dihydrochromeno[2,3-d]imidazoles] registered an SI in data set [1] of 10.4. Further, in data set [5], the “SI HK2 vs Caki-2” value was 53.57. Also, in data set [3], the “SI HK2 vs A498” value amounted to 24.85. Also, in data set [2], the “SI MDA-MB-231 vs MCF-10A” value is 2.4. The “SI HK2 vs 786-O” value in data set [4] stood at 40.91.
With `COc1cccc2c1Oc1nc(-c3cccc(O)c3)[nH]c1C2` [MC359, 3-(5-methoxy-3,9-dihydrochromeno[2,3-d]imidazol-2-yl)phenol], the SI in data set [1] is reported as 1.4. For the same compound, in data set [5], the “SI HK2 vs Caki-2” value is given as 1.26. In addition, in data set [3], the “SI HK2 vs A498” value turned out to be 1.16. Moreover, the “SI Hs578t vs MCF-10A” value in the data set on TNBC cell line Hs578t is 0.9. Besides, in data set [2], the “SI MDA-MB-231 vs MCF-10A” value is reported as 1.5. In addition, the “SI HK2 vs 786-O” value in data set [4] is on record as 0.65.
As for `COc1cccc2c1Oc1nc(-c3ccccc3F)[nH]c1C2C1c2cccc(OC)c2Oc2nc(-c3ccccc3F)[nH]c21` (stereo not drawn) [MC369, 2,2′-bis(2-fluorophenyl)-5,5′-dimethoxy-1,1,9,9′-tetrahydro-9,9′-bichromeno[2,3-]imidazoles], in data set [1], the SI is above 76. In addition, the “SI HK2 vs Caki-2” value in data set [5] turned out to be 6.57. In addition, the “SI MDA-MB-231 vs MCF-10A” value in data set [2] is on record as above 6. In data set [4], the “SI HK2 vs 786-O” value was found to be 14.57.
For the compound `COc1cccc2c1Oc1nc(-c3ccccc3F)[nH]c1C2` [MC407, 2-(2-fluorophenyl)-5-methoxy-3,9-dihydrochromeno[2,3-d]imidazoles], the SI in data set [1] came to 8.8. In addition, in data set [5], the “SI HK2 vs Caki-2” value was found to be 1.39. For the same compound, in data set [3], the “SI HK2 vs A498” value is given as “ns”. Moreover, in data set [2], the “SI MDA-MB-231 vs MCF-10A” value is 1.4. Also, the “SI HK2 vs 786-O” value in data set [4] was 0.54.
In data set [1], `COc1cccc2c1Oc1nc(-c3cc(F)cc(F)c3O)[nH]c1C2` [MC410, 2,4-difluoro-6-(5-methoxy-3,9-dihydrochromeno[2,3-d]imidazol-2-yl)phenol] showed an SI above 7. In addition, the “SI HK2 vs Caki-2” value in data set [5] turned out to be 1.71. In addition, the “SI HK2 vs 786-O” value in data set [4] stood at 50.78.
On to `COc1ccccc1-c1nc2c([nH]1)Cc1cccc(OC)c1O2` [MC411, 5-methoxy-2-(2-methoxyphenyl)-3,9-dihydrochromeno[2,3-]imidazoles], for which the SI in data set [1] came out at 3.0. For the same compound, in data set [5], the “SI HK2 vs Caki-2” value is 0.20. Also, the “SI Hs578t vs MCF-10A” value in the data set on TNBC cell line Hs578t is −0.2. Also, in data set [2], the “SI MDA-MB-231 vs MCF-10A” value came to 2.8. Also, the “SI HK2 vs 786-O” value in data set [4] was found to be 0.27.
Regarding `COc1ccc(-c2nc3c([nH]2)Cc2cccc(OC)c2O3)c(Br)c1O` [MC416, 2-bromo-6-methoxy-3-(5-methoxy-3,9-dihydrochromeno[2,3-]imidazol-2-yl)phenol], the SI in data set [1] is given as 0.86. Moreover, the “SI HK2 vs Caki-2” value in data set [5] was 0.86. In addition, in the data set with TNBC cell line Hs578t, the “SI Hs578t vs MCF-10A” value was -0.4. In data set [4], the “SI HK2 vs 786-O” value amounted to 0.50.

The values above are taken from patent US12391701B2, “Chromene-based compounds, methods and uses thereof” (University of Minho, priority 2019, dated 2025).
